Reference: paper PMC8927045, “MAP3K1 Variant Causes Hyperactivation of Wnt4/β-Catenin/FOXL2 Signaling Contributing to 46,XY Disorders/Differences of Sex Development” (Frontiers in Genetics, 2022)
No constants are given. Whether binding was seen depends on the method and setting. In cells and extracts the contact can be indirect. Some binding calls cover weakened binding; strength is not graded here.

Protein sequences, listed by entry. Tags and fused reporters are not part of them.
UniProt P61586: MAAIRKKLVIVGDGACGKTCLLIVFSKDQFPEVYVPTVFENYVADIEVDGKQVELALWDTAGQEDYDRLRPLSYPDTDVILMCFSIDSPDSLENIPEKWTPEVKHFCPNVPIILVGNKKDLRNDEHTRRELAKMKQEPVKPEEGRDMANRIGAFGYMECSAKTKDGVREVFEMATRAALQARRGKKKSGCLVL
UniProt Q13233: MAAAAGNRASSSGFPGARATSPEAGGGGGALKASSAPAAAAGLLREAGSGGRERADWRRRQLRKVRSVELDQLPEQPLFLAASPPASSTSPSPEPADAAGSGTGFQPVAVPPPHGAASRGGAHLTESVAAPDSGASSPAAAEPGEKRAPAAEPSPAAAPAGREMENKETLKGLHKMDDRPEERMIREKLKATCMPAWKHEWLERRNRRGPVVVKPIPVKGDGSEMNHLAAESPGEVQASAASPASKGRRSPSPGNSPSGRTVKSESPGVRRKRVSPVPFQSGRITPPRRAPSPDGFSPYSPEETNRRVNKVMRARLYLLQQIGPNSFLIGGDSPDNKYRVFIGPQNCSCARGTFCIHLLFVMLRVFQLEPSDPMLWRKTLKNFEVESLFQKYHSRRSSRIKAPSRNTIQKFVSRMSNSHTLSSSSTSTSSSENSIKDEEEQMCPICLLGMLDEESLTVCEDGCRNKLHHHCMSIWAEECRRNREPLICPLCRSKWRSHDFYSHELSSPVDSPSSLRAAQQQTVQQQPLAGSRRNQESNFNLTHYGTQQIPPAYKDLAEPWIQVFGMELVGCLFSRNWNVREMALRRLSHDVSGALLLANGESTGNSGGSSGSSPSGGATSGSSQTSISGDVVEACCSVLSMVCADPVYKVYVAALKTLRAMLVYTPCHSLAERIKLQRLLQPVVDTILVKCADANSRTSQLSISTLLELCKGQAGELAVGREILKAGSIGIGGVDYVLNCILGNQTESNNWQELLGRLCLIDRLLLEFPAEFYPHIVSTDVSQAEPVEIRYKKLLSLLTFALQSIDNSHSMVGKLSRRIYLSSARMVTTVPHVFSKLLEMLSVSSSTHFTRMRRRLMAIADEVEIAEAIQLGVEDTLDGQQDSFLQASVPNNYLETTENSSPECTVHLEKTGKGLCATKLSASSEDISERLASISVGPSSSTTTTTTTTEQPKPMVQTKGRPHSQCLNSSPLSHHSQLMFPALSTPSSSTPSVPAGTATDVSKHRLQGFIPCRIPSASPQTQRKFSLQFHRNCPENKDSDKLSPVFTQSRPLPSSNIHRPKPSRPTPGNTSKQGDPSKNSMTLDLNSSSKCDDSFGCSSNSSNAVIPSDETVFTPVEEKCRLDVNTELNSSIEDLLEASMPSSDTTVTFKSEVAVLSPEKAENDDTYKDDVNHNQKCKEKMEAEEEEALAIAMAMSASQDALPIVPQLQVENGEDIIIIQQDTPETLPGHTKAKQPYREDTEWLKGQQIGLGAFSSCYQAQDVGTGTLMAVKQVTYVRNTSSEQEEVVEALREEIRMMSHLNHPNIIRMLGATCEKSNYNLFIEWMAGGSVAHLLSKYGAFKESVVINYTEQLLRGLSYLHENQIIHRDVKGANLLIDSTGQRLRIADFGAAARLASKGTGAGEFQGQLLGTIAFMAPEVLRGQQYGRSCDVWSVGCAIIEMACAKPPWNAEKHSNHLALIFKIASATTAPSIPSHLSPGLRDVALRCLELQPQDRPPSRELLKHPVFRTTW

What was measured:
[1] = target: RHOA-3×Flag (human (from the RefSeq entry NM_001664; not said in words)) (UniProt P61586); assay: co-IP; HEK293T cells co-transfected with MAP3K1-3×HA and RHOA-3×Flag; 48 h after transfection lysed in modified RIPA buffer; anti-Flag or anti-HA magnetic beads overnight at 4°C; blot with anti-HA or anti-FLAG; ratio of Co-IP to IP band intensity
[2] = target: RHOA-LgBiT-N (RhoA fused to LgBiT) (human (from the RefSeq entry NM_001664; not said in words)) (UniProt P61586); assay: split reporter; NanoBiT in HEK293T cells co-transfected with SmBiT and LgBiT fusion plasmids (500 ng DNA in all, 24-well plate); 24 h after transfection medium replaced by OPTI-MEM, substrate added, signal read for 30 min; negative control: SmBiT-MAP3K1 plasmid alone

Substance	binding [1]	binding [2]
MAP3K1-3×HA (wild type) (from UniProt Q13233 1-1512) (enzyme)	binds	–
MAP3K1-SmBiT-C (wild-type MAP3K1 fused to SmBiT) (from UniProt Q13233 1-1512) (enzyme)	–	binds
